No constants are given. Whether binding was seen depends on the method and setting.
Biological target: Scavenger receptor SCAV-5 (C. elegans)
Test: two-hybrid; split-ubiquitin membrane yeast two-hybrid (MYTH); SCAV-5 in pMetYCgate, TIR-1 in pNubXgate32-HA; yeast strain AP4; dilutions 10^-1 to 10^-3 dropped onto SD-Trp-Leu-His-Ade medium; 30°C for 3 days

binding: no binding
B1: TIR-1 (protein, UniProt Q86DA5 1-981)
chain: MLPNRKPPRPSPSFQSLNNNNQRFPLRRSLKIAQAHSLPTVPSEDAKDDDLITPELSTDFDFREIQHRYLMALQNEQDGETTSTDDAFFELDDDDDLSSPSVPGSPVDPPSISVPLPPKSAPPCPTQPAPLTNGDLYPTILSNGTPIPNGRITPALSTVSVSLIHEARLQQSLSTPCNGSEEEMHNGQVRKESEYRRFKSEGSTAGASLPAAEKTHMDELSPVDQRSTSGTARFLIQQDSVVNPSTKMSNTEQVAMMHTLKTKLSKYQAMMDKAFEEIAKVEDANIIEGCTIVRKLMRKVWNTPKVSADLANALCDYLRDRDYFDKLIKMFISPNTAACDQVRMECGKVLEECTSSANLEYIVNKSYTKKIMIVAMKLNKTPDQQRLSLSLIGNLFKHSNAVSLSLIETDVIDHIILTFKRAPECPDILRHAALALANILLYTCFEGKKKIIQKKIPEWLFFLASQADDVTRYYACIAVCTIVSVKEFEPLVRKSDTMKLVEPFLQVHDPATFARDYHKYAQGNTKEWLERLLPMLQPSRRREARSVAAFHFTLEATIKKEQNKLDVFQEIGAIQALKEVASSPDEVAAKFASEALTVIGEEVPYKLAQQVPGWTCADVQYWVKKIGFEEYVEKFAKQMVDGDLLLQLTENDLKHDVGMISGLHRKRFLRELQTLKVAADYSSVDESNLDNFLMGLSPELSVYTYQMLTNGVNRSLLSSLTDEMMQNACGITNPIHRLKLTQAFETAKHPDDVEVAMLSKQIDVFISYRRSTGNQLASLIKVLLQLRGYRVFIDVDKLYAGKFDSSLLKNIQAAKHFILVLTPNSLDRLLNDDNCEDWVHKELKCAFEHQKNIIPIFDTAFEFPTKEDQIPNDIRMITKYNGVKWVHDYQDACMAKVVRFITGELNRTTPTTKEMPSISRKTTQQRWQTTNTVSRTGPSRSIGGPRMEPPTPTFTPTGSQERATSTRRKIQPSASTTSDRN
